Record: PubChem BioAssay AID1159578 (Peter MacCallum Cancer Centre, 2015)
Here is a random part of about 18,000 reagents tested. Of all reagents, about 1,030 (5.7%) were called active. 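Inactive calls also include pools with fewer than 3300 nuclei, whose migration was not assessed.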 Raw values vary from plate to plate and are shown uncorrected. A number with no mark means an inactive call. Reagents against one gene are numbered here.

Screen: 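Knock-downs that alter how fast lymphatic endothelial cells migrate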 (primary screen)
Cell system: human lymphatic endothelial cells
Knock-down reagent: siRNA pool against human genes, 40 nM
Duration: 48 h after transfection
Detection: 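High-content imaging of dye-stained cells in a scratch assay measures filled wound area and nuclei per well; duplicate means given as ratio to mock and robust z-score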
Reading the numbers: migration robust z-score: higher = faster migration into the scratch; migration relative to mock: higher = more scratch area covered than mock; nuclei per well: higher = more cells in the well
Rule for the call: 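Pools averaging fewer than 3300 nuclei are never called; remaining pools count as changed when migration robust z lies outside -2 to 2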
Calls: active = migration changed; inactive = no migration change, or too few cells

no.	gene knocked down	reagent no.	migration robust z-score	migration class with cell-count check	migration relative to mock	nuclei per well, duplicate mean
1	ANKS1B (ankyrin repeat and sterile alpha motif domain containing 1B)	1	0.48	migration z between -2 and 2; enough cells	1.01	5841
2	PHLDB2 (pleckstrin homology like domain family B member 2)	1	1.2	migration z between -2 and 2; enough cells	1.19	8146
3	INSM1 (INSM transcriptional repressor 1)	1	1.15	migration z between -2 and 2; enough cells	1.02	5392
4	ELL3 (elongation factor for RNA polymerase II 3)	1	2.37 (active)	migration z above 2; enough cells	1.5	6720
5	KCNQ4 (potassium voltage-gated channel subfamily Q member 4)	1	-0.46	migration z between -2 and 2; enough cells	0.72	5479
6	RBM24 (RNA binding motif protein 24)	1	-2.59 (active)	migration z below -2; enough cells	0.21	5170
7	NLGN1 (neuroligin 1)	1	0.42	migration z between -2 and 2; enough cells	0.88	5408
8	CHMP2A (charged multivesicular body protein 2A)	1	-3.56	under 3300 nuclei; migration not judged	-0.04	2770
9	ARPC4 (actin related protein 2/3 complex subunit 4)	1	-0.1	migration z between -2 and 2; enough cells	0.78	5476
10	ALG1L1P (ALG1 like 1, pseudogene)	1	-0.68	migration z between -2 and 2; enough cells	0.72	5761
11	MITD1 (microtubule interacting and trafficking domain containing 1)	1	2.58 (active)	migration z above 2; enough cells	1.55	5671
12	DCAF4 (DDB1 and CUL4 associated factor 4)	1	-1.73	migration z between -2 and 2; enough cells	0.44	4868
13	SPRR2E (small proline rich protein 2E)	1	-0.44	migration z between -2 and 2; enough cells	0.77	5811
14	MRPS18B (mitochondrial ribosomal protein S18B)	1	0.54	migration z between -2 and 2; enough cells	1.02	6570
15	CCM2L (CCM2 like scaffold protein)	1	-1.04	migration z between -2 and 2; enough cells	0.61	6333
16	TENT5C (terminal nucleotidyltransferase 5C)	1	-0.94	migration z between -2 and 2; enough cells	0.64	6118
17	GNL3L (G protein nucleolar 3 like)	1	0.88	migration z between -2 and 2; enough cells	1.11	5886
18	CALHM2 (calcium homeostasis modulator family member 2)	1	-0.22	migration z between -2 and 2; enough cells	0.82	5146
19	COLEC11 (collectin subfamily member 11)	1	1.79	migration z between -2 and 2; enough cells	1.35	6482
20	C6orf163 (chromosome 6 open reading frame 163)	1	-0.48	migration z between -2 and 2; enough cells	0.76	4584
21	LAMTOR4 (late endosomal/lysosomal adaptor, MAPK and MTOR activator 4)	1	1.38	migration z between -2 and 2; enough cells	1.25	7361
22	ZHX1 (zinc fingers and homeoboxes 1)	1	1.04	migration z between -2 and 2; enough cells	1	5539
23	HACL1 (2-hydroxyacyl-CoA lyase 1)	1	-0.39	migration z between -2 and 2; enough cells	0.73	4568
24	SULT1C4 (sulfotransferase family 1C member 4)	1	-0.26	migration z between -2 and 2; enough cells	0.76	6353
25	ANKAR (ankyrin and armadillo repeat containing)	1	0.25	migration z between -2 and 2; enough cells	0.94	5304
26	PLIN1 (perilipin 1)	1	-0.13	migration z between -2 and 2; enough cells	0.85	5740
27	AQP7 (aquaporin 7)	1	-0.36	migration z between -2 and 2; enough cells	0.74	4538
28	PDCL (phosducin like)	1	-2	migration z between -2 and 2; enough cells	0.42	5233
29	VASN (vasorin)	1	-0.94	migration z between -2 and 2; enough cells	0.64	5445
30	KRT86 (keratin 86)	1	-1.4	migration z between -2 and 2; enough cells	0.52	6300
31	TPM1 (tropomyosin 1)	1	-0.68	migration z between -2 and 2; enough cells	0.68	4984
32	TRIM47 (tripartite motif containing 47)	1	-1.19	migration z between -2 and 2; enough cells	0.57	6454
33	NOPCHAP1 (NOP protein chaperone 1)	1	1.02	migration z between -2 and 2; enough cells	1.15	4922
34	ATP7B (ATPase copper transporting beta)	1	-0.52	migration z between -2 and 2; enough cells	0.71	5902
35	C19orf25 (chromosome 19 open reading frame 25)	1	0.88	migration z between -2 and 2; enough cells	1.12	6498
36	CCDC158 (coiled-coil domain containing 158)	1	-0.16	migration z between -2 and 2; enough cells	0.84	5382
37	VKORC1L1 (vitamin K epoxide reductase complex subunit 1L1)	1	0.26	migration z between -2 and 2; enough cells	0.96	3672
38	PRR20A (proline rich 20A)	1	0.45	migration z between -2 and 2; enough cells	1	6177
39	RAB37 (RAB37, member RAS oncogene family)	1	0.77	migration z between -2 and 2; enough cells	1.08	5720
40	ARHGAP9 (Rho GTPase activating protein 9)	1	-0.82	migration z between -2 and 2; enough cells	0.67	6010
41	MINDY4 (MINDY lysine 48 deubiquitinase 4)	1	0.38	migration z between -2 and 2; enough cells	0.99	5799
42	COBL (cordon-bleu WH2 repeat protein)	1	0.18	migration z between -2 and 2; enough cells	0.93	4679
43	LILRB5 (leukocyte immunoglobulin like receptor B5)	1	0.72	migration z between -2 and 2; enough cells	0.94	5564
44	SNX8 (sorting nexin 8)	1	-2.29 (active)	migration z below -2; enough cells	0.29	5546
45	RNF20 (ring finger protein 20)	1	-0.42	migration z between -2 and 2; enough cells	0.73	5449
46	VPS52 (VPS52 subunit of GARP complex)	1	0.38	migration z between -2 and 2; enough cells	0.98	5262
47	ANKRD24 (ankyrin repeat domain 24)	1	-0.3	migration z between -2 and 2; enough cells	0.8	5884
48	MRGPRX1 (MAS related GPR family member X1)	1	0.13	migration z between -2 and 2; enough cells	0.83	7334
49	SIGLEC7 (sialic acid binding Ig like lectin 7)	1	1.62	migration z between -2 and 2; enough cells	1.31	6412
50	MBD3 (methyl-CpG binding domain protein 3)	1	2.4 (active)	migration z above 2; enough cells	1.51	5799
51	FSIP2 (fibrous sheath interacting protein 2)	1	2.76 (active)	migration z above 2; enough cells	1.6	5528
52	FSIP2 (fibrous sheath interacting protein 2)	2	2.02 (active)	migration z above 2; enough cells	1.41	5458
53	UMODL1 (uromodulin like 1)	1	-0.18	migration z between -2 and 2; enough cells	0.84	6386
54	ST6GALNAC2 (ST6 N-acetylgalactosaminide alpha-2,6-sialyltransferase 2)	1	-0.99	migration z between -2 and 2; enough cells	0.63	5352
55	FAM174B (family with sequence similarity 174 member B)	1	0.1	migration z between -2 and 2; enough cells	0.92	5986
56	SPANXD (SPANX family member D)	1	1.85	migration z between -2 and 2; enough cells	1.37	6080
57	SPANXD (SPANX family member D)	2	-1	migration z between -2 and 2; enough cells	0.62	4361

Part of the list above, set out differently.
| gene knocked down | reagent no. | migration robust z-score | migration class with cell-count check | migration relative to mock | nuclei per well, duplicate mean |
| --- | --- | --- | --- | --- | --- |
| COBL (cordon-bleu WH2 repeat protein) | 1 | 0.18 | migration z between -2 and 2; enough cells | 0.93 | 4679 |
| LILRB5 (leukocyte immunoglobulin like receptor B5) | 1 | 0.72 | migration z between -2 and 2; enough cells | 0.94 | 5564 |
| SNX8 (sorting nexin 8) | 1 | -2.29 (active) | migration z below -2; enough cells | 0.29 | 5546 |
| RNF20 (ring finger protein 20) | 1 | -0.42 | migration z between -2 and 2; enough cells | 0.73 | 5449 |
| VPS52 (VPS52 subunit of GARP complex) | 1 | 0.38 | migration z between -2 and 2; enough cells | 0.98 | 5262 |
| ANKRD24 (ankyrin repeat domain 24) | 1 | -0.3 | migration z between -2 and 2; enough cells | 0.8 | 5884 |
| MRGPRX1 (MAS related GPR family member X1) | 1 | 0.13 | migration z between -2 and 2; enough cells | 0.83 | 7334 |
| SIGLEC7 (sialic acid binding Ig like lectin 7) | 1 | 1.62 | migration z between -2 and 2; enough cells | 1.31 | 6412 |
| MBD3 (methyl-CpG binding domain protein 3) | 1 | 2.4 (active) | migration z above 2; enough cells | 1.51 | 5799 |
